The list shows a part of the results.
Key:
Experiment in all cases: log2 fold change, soluble protein after heating vs DMSO (PISA); higher = thermal stabilisation; K562 cells, 10 uM, 30 min; active = over 0.2 and 3.5 SD of the protein, either way, in both replicates (recomputed)
[1] = compound: COC1=CC=C(C=C1)CN2C=CC3=C2C=C(C=C3)C(=O)NO
Procedure, shortened: (§1)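 Soluble protein was quantified by TMTpro 16plex LC-MS/MS after channel sums were equalised. It was obtained as the supernatant after 21,000xg for 90 min from pooled aliquots of K562 cells (2×10^6 cells/mL, 10 μM compound, 30 min) heated for 3 min across 48°C-58°C and extracted in PBS with 0.5% NP-40 at 4°C. Thermal stability values are relative to control samples and come from duplicates. They are given as log2 fold changes.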

The chains behind the UniProt entries cited, without tags or fusion partners. Where a name states a change or a piece, a line headed by the entry shows the natural chain unless it says otherwise.
UniProt Q13371: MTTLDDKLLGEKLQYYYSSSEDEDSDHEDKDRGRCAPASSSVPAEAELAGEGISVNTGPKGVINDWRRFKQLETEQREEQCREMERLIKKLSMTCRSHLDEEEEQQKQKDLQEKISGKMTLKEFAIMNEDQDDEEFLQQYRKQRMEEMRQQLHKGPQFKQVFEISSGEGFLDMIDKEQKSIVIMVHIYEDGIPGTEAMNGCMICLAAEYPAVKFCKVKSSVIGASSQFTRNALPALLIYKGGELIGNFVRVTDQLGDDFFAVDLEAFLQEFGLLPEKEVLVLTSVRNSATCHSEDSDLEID
UniProt Q8WUM4: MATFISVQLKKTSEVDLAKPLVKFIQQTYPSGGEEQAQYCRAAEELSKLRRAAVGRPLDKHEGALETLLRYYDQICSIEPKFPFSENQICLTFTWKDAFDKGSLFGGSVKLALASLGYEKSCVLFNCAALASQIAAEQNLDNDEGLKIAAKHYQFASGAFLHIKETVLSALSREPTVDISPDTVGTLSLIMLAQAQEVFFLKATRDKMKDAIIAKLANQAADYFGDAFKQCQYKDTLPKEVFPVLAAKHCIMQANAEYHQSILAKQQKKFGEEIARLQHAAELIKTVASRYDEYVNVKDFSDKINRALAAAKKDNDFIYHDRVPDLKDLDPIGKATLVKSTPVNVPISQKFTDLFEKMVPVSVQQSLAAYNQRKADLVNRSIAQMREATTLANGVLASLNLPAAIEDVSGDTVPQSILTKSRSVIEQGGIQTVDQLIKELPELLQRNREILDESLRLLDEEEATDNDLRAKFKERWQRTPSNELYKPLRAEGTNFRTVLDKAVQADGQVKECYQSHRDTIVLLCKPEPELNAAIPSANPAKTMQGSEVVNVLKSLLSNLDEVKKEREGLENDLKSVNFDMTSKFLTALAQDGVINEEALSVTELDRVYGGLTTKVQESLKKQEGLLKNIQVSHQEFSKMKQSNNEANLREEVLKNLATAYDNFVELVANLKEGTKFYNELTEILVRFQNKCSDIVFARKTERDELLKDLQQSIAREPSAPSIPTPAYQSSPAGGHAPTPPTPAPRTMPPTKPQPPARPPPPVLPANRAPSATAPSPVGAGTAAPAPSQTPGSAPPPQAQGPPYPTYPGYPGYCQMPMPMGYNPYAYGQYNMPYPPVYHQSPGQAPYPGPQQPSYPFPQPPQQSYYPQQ
UniProt O43924: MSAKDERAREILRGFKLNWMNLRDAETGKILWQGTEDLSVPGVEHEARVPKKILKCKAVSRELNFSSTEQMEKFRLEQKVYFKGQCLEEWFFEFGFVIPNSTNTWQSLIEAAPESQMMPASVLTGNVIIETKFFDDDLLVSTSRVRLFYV
UniProt Q9H4Z3: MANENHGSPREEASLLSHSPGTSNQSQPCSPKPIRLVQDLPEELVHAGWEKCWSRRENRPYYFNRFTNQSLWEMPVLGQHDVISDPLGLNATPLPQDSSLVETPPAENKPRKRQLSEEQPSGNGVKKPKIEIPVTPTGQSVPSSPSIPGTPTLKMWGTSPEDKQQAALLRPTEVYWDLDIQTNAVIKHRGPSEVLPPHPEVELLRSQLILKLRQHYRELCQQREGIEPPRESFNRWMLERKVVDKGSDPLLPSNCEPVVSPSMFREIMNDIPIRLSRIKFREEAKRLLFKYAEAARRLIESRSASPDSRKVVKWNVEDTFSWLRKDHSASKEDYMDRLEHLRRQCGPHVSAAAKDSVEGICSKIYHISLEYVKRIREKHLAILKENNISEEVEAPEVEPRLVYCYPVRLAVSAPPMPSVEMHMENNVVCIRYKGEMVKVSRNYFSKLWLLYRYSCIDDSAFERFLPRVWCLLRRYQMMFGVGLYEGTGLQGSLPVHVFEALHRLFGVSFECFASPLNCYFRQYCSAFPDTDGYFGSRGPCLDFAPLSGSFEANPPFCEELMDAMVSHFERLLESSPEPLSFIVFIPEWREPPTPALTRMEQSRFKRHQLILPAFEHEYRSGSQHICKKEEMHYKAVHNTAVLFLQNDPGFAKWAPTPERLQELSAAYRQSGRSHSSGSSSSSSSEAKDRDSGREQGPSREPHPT
UniProt Q9H813: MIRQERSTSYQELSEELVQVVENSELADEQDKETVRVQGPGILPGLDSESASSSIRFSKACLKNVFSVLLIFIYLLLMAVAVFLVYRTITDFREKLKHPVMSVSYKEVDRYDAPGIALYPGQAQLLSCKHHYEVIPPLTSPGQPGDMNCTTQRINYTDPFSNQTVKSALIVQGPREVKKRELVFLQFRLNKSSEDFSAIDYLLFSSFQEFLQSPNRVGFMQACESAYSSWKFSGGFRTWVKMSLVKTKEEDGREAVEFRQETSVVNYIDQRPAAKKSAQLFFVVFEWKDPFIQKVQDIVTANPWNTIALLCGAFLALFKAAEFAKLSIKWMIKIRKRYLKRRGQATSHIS
UniProt Q86SE9: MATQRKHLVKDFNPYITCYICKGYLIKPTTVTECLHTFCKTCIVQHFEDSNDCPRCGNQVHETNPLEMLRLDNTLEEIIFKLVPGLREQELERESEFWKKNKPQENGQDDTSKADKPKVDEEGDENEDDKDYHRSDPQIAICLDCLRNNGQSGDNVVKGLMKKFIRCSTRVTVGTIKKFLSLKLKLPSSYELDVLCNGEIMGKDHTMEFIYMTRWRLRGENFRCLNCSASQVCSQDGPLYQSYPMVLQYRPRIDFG
UniProt Q15121, whole entry, looked up: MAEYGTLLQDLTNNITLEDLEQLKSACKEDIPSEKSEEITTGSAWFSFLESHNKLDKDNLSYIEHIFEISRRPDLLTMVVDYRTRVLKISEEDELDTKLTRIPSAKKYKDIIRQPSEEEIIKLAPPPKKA
UniProt Q86W56: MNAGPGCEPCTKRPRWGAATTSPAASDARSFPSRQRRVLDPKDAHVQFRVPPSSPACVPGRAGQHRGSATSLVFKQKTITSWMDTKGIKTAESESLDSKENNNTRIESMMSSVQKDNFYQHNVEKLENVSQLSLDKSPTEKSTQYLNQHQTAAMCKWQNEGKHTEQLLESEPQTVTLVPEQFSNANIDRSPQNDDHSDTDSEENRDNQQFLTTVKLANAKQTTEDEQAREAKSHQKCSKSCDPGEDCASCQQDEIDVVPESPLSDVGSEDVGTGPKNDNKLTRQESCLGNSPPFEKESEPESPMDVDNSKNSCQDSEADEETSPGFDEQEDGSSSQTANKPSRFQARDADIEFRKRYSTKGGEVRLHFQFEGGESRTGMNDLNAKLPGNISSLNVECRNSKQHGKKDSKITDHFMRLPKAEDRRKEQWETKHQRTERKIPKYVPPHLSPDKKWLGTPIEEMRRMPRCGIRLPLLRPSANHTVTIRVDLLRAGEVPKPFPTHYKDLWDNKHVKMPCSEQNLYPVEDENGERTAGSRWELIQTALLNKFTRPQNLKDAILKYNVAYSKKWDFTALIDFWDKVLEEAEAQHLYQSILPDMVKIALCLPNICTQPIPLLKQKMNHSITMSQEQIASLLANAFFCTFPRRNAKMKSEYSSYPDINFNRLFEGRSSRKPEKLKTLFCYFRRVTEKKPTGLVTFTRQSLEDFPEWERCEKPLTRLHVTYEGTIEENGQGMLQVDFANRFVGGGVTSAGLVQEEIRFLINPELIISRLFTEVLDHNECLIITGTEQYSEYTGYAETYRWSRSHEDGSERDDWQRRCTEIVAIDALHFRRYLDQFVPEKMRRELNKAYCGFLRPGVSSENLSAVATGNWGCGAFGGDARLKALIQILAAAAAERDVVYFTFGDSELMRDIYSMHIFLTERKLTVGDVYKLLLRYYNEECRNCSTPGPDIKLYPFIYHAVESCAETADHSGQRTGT
UniProt P09874, whole entry, looked up: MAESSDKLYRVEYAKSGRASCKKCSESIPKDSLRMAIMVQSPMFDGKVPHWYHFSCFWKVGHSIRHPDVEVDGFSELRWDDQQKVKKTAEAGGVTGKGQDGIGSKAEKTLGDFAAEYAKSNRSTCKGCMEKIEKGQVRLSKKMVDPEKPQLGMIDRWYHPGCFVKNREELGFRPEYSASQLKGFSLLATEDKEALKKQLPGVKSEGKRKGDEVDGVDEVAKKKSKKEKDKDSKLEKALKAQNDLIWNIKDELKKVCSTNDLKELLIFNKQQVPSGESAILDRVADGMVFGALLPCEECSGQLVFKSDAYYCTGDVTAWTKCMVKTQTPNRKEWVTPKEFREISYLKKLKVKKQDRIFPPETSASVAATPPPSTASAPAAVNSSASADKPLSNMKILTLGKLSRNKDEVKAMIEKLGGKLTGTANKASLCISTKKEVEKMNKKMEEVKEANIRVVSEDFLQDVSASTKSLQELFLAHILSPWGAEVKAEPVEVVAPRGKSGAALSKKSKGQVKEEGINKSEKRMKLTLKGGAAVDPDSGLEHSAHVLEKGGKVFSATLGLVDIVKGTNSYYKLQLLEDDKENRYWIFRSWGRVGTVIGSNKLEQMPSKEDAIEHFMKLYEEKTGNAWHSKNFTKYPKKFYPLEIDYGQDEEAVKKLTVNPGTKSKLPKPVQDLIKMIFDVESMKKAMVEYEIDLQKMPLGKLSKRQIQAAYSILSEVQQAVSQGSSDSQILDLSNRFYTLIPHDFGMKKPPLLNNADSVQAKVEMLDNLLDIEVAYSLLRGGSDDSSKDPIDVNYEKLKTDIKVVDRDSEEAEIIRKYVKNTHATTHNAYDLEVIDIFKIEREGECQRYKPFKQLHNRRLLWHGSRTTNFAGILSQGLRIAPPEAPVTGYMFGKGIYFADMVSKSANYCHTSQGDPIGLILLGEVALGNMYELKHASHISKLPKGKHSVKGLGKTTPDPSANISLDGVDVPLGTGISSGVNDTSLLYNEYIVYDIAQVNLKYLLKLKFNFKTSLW
UniProt Q15366, whole entry, looked up: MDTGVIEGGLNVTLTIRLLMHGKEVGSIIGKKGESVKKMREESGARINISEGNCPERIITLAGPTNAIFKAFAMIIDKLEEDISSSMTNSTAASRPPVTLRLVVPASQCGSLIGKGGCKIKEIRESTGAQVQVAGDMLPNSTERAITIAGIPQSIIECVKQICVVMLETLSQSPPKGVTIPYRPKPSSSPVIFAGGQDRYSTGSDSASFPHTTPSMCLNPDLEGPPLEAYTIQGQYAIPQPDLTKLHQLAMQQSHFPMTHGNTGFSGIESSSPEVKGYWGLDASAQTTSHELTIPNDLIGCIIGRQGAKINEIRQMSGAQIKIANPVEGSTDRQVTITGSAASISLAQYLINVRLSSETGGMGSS
UniProt Q9UBV8: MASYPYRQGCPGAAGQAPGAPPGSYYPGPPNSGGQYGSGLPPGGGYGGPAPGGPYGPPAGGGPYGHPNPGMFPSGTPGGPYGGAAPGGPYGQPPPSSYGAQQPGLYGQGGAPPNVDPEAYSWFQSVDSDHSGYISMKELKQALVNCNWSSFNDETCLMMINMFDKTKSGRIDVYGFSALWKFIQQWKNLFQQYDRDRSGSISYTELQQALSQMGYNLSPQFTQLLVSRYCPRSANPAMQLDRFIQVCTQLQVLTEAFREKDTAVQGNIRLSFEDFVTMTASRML
UniProt Q6VY07, whole entry, looked up: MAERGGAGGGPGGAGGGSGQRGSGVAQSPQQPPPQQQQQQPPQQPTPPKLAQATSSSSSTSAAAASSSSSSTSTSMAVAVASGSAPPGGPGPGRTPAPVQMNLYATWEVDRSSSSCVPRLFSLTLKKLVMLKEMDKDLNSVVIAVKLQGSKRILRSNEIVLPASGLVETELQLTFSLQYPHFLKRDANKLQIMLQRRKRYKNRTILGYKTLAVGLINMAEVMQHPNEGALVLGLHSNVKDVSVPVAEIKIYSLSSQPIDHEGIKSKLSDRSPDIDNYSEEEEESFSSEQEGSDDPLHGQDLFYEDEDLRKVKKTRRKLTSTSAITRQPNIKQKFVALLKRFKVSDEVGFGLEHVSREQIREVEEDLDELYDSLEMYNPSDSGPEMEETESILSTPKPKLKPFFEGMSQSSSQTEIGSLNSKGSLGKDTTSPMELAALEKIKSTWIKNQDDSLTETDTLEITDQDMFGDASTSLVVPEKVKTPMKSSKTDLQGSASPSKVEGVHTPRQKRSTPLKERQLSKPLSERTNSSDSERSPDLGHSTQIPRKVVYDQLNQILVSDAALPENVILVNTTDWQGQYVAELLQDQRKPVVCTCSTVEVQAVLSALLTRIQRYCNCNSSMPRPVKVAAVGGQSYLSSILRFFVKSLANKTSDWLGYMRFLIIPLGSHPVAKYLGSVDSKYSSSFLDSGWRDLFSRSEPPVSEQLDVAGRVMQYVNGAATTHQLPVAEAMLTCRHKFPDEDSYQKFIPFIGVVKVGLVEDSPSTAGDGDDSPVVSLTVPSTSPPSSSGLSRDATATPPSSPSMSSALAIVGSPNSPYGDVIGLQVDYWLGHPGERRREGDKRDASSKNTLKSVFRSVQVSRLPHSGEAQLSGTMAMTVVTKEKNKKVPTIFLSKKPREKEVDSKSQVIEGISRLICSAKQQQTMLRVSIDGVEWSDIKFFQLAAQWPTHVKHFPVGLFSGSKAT

filanesib = compound: CON(C)C(=O)N1N=C(c2cc(F)ccc2F)S[C@@]1(CCCN)c1ccccc1 [filanesib]
Procedure, shortened: as §1

zotarolimus = compound: CO[C@H]1C[C@@H]2CC[C@@H](C)[C@@](O)(O2)C(=O)C(=O)N2CCCC[C@H]2C(=O)O[C@H]([C@H](C)C[C@@H]2CC[C@H](n3cnnn3)[C@H](OC)C2)CC(=O)[C@H](C)/C=C(\C)[C@@H](O)[C@@H](OC)C(=O)[C@H](C)C[C@H](C)/C=C/C=C/C=C/1C [zotarolimus]
Procedure, shortened: as §1

idasanutlin = compound: COc1cc(C(=O)O)ccc1NC(=O)[C@@H]1N[C@@H](CC(C)(C)C)[C@](C#N)(c2ccc(Cl)cc2F)[C@H]1c1cccc(Cl)c1F [idasanutlin]
Procedure, shortened: as §1

alisertib = compound: COc1cc(Nc2ncc3c(n2)-c2ccc(Cl)cc2C(c2c(F)cccc2OC)=NC3)ccc1C(=O)O [alisertib]
Procedure, shortened: as §1

[2] = compound: COc1cc2nc(-c3cc(F)ccc3O)nc(N[C@@H]3CNC[C@H]3C(C)(C)O)c2cc1OC
Procedure, shortened: as §1

gefitinib = compound: COc1cc2ncnc(Nc3ccc(F)c(Cl)c3)c2cc1OCCCN1CCOCC1 [gefitinib]
Procedure, shortened: as §1

[3] = compound: COc1cccc2cc(-c3nc([C@H]4CC[C@H](C(=O)O)CC4)n4ncnc(N)c34)[nH]c12
Procedure, shortened: as §1

lapatinib = compound: CS(=O)(=O)CCNCc1ccc(-c2ccc3ncnc(Nc4ccc(OCc5cccc(F)c5)c(Cl)c4)c3c2)o1 [lapatinib]
Procedure, shortened: as §1

pictilisib = compound: CS(=O)(=O)N1CCN(Cc2cc3nc(-c4cccc5[nH]ncc45)nc(N4CCOCC4)c3s2)CC1 [pictilisib]
Procedure, shortened: as §1

[4] = compound: CS(=O)(=O)c1ccc(-c2cnc(N)c(C(=O)Nc3ccccc3)n2)cc1
Procedure, shortened: as §1

crizotinib = compound: C[C@@H](Oc1cc(-c2cnn(C3CCNCC3)c2)cnc1N)c1c(Cl)ccc(F)c1Cl [crizotinib]
Procedure, shortened: as §1

[5] = compound: C[C@@H]1COCCN1C2=NC(=NC(=C2)C3(CC3)S(=O)(=O)C)C4=C5C=CNC5=CC=C4
Procedure, shortened: as §1

[6] = compound: C[C@H](C1=CC=C(C=C1)C(=O)NC2=C3C=CNC3=NC=C2)N
Procedure, shortened: as §1

gandotinib = compound: Cc1cc(Nc2cc(CN3CCOCC3)c3nc(C)c(Cc4ccc(Cl)cc4F)n3n2)n[nH]1 [gandotinib]
Procedure, shortened: as §1

[7] = compound: Cc1cc(SCc2sc(-c3ccc(C(F)(F)F)cc3)nc2C)ccc1OCC(=O)O
Procedure, shortened: as §1

doramapimod = compound: Cc1ccc(-n2nc(C(C)(C)C)cc2NC(=O)Nc2ccc(OCCN3CCOCC3)c3ccccc23)cc1 [doramapimod]
Procedure, shortened: as §1

ispinesib = compound: Cc1ccc(C(=O)N(CCCN)[C@@H](c2nc3cc(Cl)ccc3c(=O)n2Cc2ccccc2)C(C)C)cc1 [ispinesib]
Procedure, shortened: as §1

duvelisib = compound: C[C@H](Nc1ncnc2nc[nH]c12)c1cc2cccc(Cl)c2c(=O)n1-c1ccccc1 [duvelisib]
Procedure, shortened: as §1

tozasertib = compound: Cc1cc(Nc2cc(N3CCN(C)CC3)nc(Sc3ccc(NC(=O)C4CC4)cc3)n2)n[nH]1 [tozasertib]
Procedure, shortened: as §1

Measured: log2 fold change

PCYT1B (UniProt Q9Y5K3)
inactive: [1] 0.005 | filanesib 0.026 | zotarolimus 0 | idasanutlin -0.029 | alisertib -0.156 | [2] 0.131 | gefitinib -0.051 | [3] 0.018 | lapatinib -0.019 | pictilisib -0.12 | [4] -0.008 | crizotinib -0.109 | [5] 0.147 | [6] -0.109 | gandotinib -0.088 | [7] 0.044 | doramapimod -0.036 | ispinesib 0.12

PDCL (UniProt Q13371)
inactive: [1] 0.009 | filanesib -0.009 | zotarolimus -0.048 | idasanutlin -0.006 | alisertib -0.166 | [2] 0.038 | gefitinib -0.008 | [3] -0.022 | lapatinib 0.032 | pictilisib 0.016 | [4] 0.061 | crizotinib 0.02 | [5] -0.193 | [6] 0.003 | duvelisib 0.071 | gandotinib -0.038 | tozasertib 0.027 | [7] 0.018 | doramapimod -0.043 | ispinesib -0.01

PDE2A (UniProt O00408)
inactive: [1] 0.172 | filanesib -0.118 | zotarolimus 0.001 | idasanutlin -0.089 | alisertib -0.053 | [2] 0.134 | gefitinib -0.004 | [3] 0.027 | lapatinib -0.014 | pictilisib 0.148 | [4] -0.064 | crizotinib 0.004 | [5] 0.223 | [6] -0.108 | gandotinib 0.117 | [7] 0.045 | doramapimod -0.026 | ispinesib -0.067

PDCD6IP (UniProt Q8WUM4)
inactive: [1] 0.105 | filanesib -0.022 | zotarolimus 0.079 | idasanutlin -0.018 | alisertib 0.045 | [2] 0.022 | gefitinib 0.06 | [3] -0.118 | lapatinib -0.04 | pictilisib 0.009 | [4] 0.078 | crizotinib -0.177 | [5] 0.067 | [6] 0.077 | gandotinib -0.117 | [7] 0.17 | doramapimod -0.042 | ispinesib -0.14

PDE6D (UniProt O43924)
inactive: [1] -0.036 | filanesib 0.101 | zotarolimus -0.179 | idasanutlin -0.092 | alisertib -0.031 | gefitinib 0.076 | [3] 0.002 | pictilisib 0.078 | [4] -0.165 | crizotinib 0.001 | [5] 0.079 | [6] -0.148 | gandotinib -0.202 | [7] -0.098 | doramapimod 0.084

PCIF1 (UniProt Q9H4Z3)
inactive: [1] -0.283 | filanesib 0.115 | idasanutlin 0.031 | alisertib 0.02 | gefitinib 0.026 | [3] 0.079 | pictilisib -0.031 | [4] -0.104 | crizotinib 0.057 | [5] 0.075 | duvelisib 0.174 | gandotinib 0.068 | tozasertib 0.009 | [7] 0.035 | doramapimod -0.024 | ispinesib 0.086

PACC1 (UniProt Q9H813)
inactive: [1] -0.04 | filanesib -0.089 | zotarolimus 0.043 | idasanutlin -0.105 | alisertib -0.015 | [2] 0.137 | gefitinib 0.024 | [3] 0.079 | lapatinib 0.029 | [4] 0.126 | crizotinib -0.078 | [5] 0.039 | [6] -0.171 | duvelisib 0.07 | tozasertib 0 | [7] -0.124 | doramapimod -0.001

PCGF2 (UniProt P35227)
inactive: [1] -0.039 | filanesib 0.055 | zotarolimus 0.03 | idasanutlin -0.008 | alisertib 0.036 | [2] 0.11 | gefitinib 0.021 | [3] 0.018 | lapatinib -0.058 | pictilisib -0.02 | [4] 0.041 | crizotinib 0.01 | [5] 0.075 | [6] 0.087 | gandotinib 0.121 | [7] 0.15 | doramapimod -0.089 | ispinesib 0.021

PCF11 (UniProt O94913)
inactive: [1] -0.169 | zotarolimus -0.119 | idasanutlin -0.097 | alisertib 0.015 | [2] 0.076 | [3] 0.106 | lapatinib 0.012 | pictilisib 0.027 | crizotinib -0.137 | [6] 0.211 | gandotinib -0.149 | doramapimod 0.051 | ispinesib -0.533

PDCD4 (UniProt Q53EL6)
inactive: [1] 0.055 | filanesib -0.153 | zotarolimus 0.251 | idasanutlin -0.161 | alisertib -0.025 | [2] 0.018 | gefitinib 0.057 | [3] 0.16 | lapatinib 0.032 | pictilisib 0.083 | [4] 0.096 | crizotinib 0.09 | [5] 0.303 | [6] 0.007 | gandotinib -0.141 | [7] 0.066 | doramapimod -0.047 | ispinesib 0.039

PDP1 isoform 2 (UniProt Q9P0J1)
inactive: [1] 0.079 | filanesib 0.12 | [2] 0.072 | lapatinib 0.075 | [4] 0.13 | crizotinib 0.091 | doramapimod -0.014

PCGF5 (UniProt Q86SE9)
inactive: [1] 0.11 | filanesib 0.059 | [4] 0.043 | crizotinib 0.007 | [5] -0.055 | duvelisib 0.153 | [7] 0.319 | doramapimod 0.125 | ispinesib 0.232

PDSS2 (UniProt Q86YH6)
inactive: [1] 0.23 | filanesib 0.025 | zotarolimus 0.184 | idasanutlin 0.157 | [2] -0.286 | gefitinib 0.15 | lapatinib 0.162 | pictilisib -0.038 | [4] -0.034 | crizotinib 0.078 | [5] 0.075 | [6] -0.058 | gandotinib 0.098 | [7] 0.149 | doramapimod 0.049 | ispinesib -0.031

PEA15 isoform 2 (UniProt Q15121)
inactive: [1] 0.011 | filanesib -0.079 | zotarolimus 0.05 | idasanutlin -0.02 | alisertib -0.047 | [2] -0.009 | gefitinib 0 | [3] -0.015 | lapatinib -0.003 | pictilisib 0.03 | [4] 0.012 | crizotinib 0.136 | [5] 0.141 | [6] -0.048 | gandotinib -0.073 | [7] 0.048 | doramapimod 0.003 | ispinesib 0.034

Two entries drawn at random from those above, as already listed:
PDP1 isoform 2 (UniProt Q9P0J1)
inactive: [1] 0.079 | filanesib 0.12 | [2] 0.072 | lapatinib 0.075 | [4] 0.13 | crizotinib 0.091 | doramapimod -0.014

PDCD4 (UniProt Q53EL6)
inactive: [1] 0.055 | filanesib -0.153 | zotarolimus 0.251 | idasanutlin -0.161 | alisertib -0.025 | [2] 0.018 | gefitinib 0.057 | [3] 0.16 | lapatinib 0.032 | pictilisib 0.083 | [4] 0.096 | crizotinib 0.09 | [5] 0.303 | [6] 0.007 | gandotinib -0.141 | [7] 0.066 | doramapimod -0.047 | ispinesib 0.039

The results go on.

PARG (UniProt Q86W56)
inactive: [1] 0.065 | filanesib -0.057 | zotarolimus 0.048 | idasanutlin -0.093 | alisertib -0.114 | [2] 0.013 | gefitinib 0.023 | [3] 0.094 | lapatinib 0.013 | pictilisib -0.023 | [4] -0.027 | crizotinib -0.147 | [5] 0.013 | [6] 0.016 | gandotinib -0.094 | [7] 0.123 | doramapimod 0.015 | ispinesib -0.148

PARP1 (UniProt P09874)
inactive: [1] 0.091 | filanesib -0.043 | zotarolimus 0.048 | idasanutlin -0.047 | alisertib 0.039 | [2] 0.147 | gefitinib 0.062 | [3] -0.062 | lapatinib -0.082 | pictilisib 0.008 | [4] 0.088 | crizotinib 0.037 | [5] 0.007 | [6] 0.012 | gandotinib -0.029 | [7] 0.165 | doramapimod -0.065 | ispinesib -0.126

PCBP2 isoform 3 (UniProt Q15366)
inactive: [1] 0.138 | filanesib -0.031 | zotarolimus 0.048 | idasanutlin -0.064 | alisertib 0.012 | [2] -0.092 | gefitinib 0.011 | [3] 0.002 | lapatinib 0.003 | pictilisib -0.013 | [4] -0.036 | crizotinib -0.018 | [5] 0.06 | [6] -0.031 | gandotinib -0.065 | [7] 0.072 | doramapimod -0.008 | ispinesib 0.005

PEF1 (UniProt Q9UBV8)
inactive: [1] -0.009 | filanesib -0.038 | zotarolimus 0.041 | idasanutlin -0.009 | alisertib -0.008 | [2] -0.089 | gefitinib -0.011 | [3] 0.058 | lapatinib 0.032 | pictilisib -0.076 | [4] 0.119 | crizotinib 0.094 | [5] 0.059 | [6] -0.102 | gandotinib -0.019 | [7] 0.019 | doramapimod -0.091 | ispinesib 0.208

PACS1 (UniProt Q6VY07)
inactive: [1] 0.105 | filanesib 0.047 | zotarolimus 0.008 | idasanutlin -0.005 | alisertib 0.006 | [2] 0.054 | gefitinib 0.043 | [3] 0.002 | lapatinib 0.013 | pictilisib 0.021 | [4] 0.013 | crizotinib -0.053 | [5] 0.051 | [6] -0.015 | gandotinib -0.018 | [7] -0.014 | doramapimod 0.06 | ispinesib 0.042
